The values that follow come from PMC7819943, “Rice protein-binding microarrays: a tool to detect cis-acting elements near promoter regions in rice”.

By UniProt entry, the sequences of proteins in these tests, tags left out.
UniProt Q0JBA9, entry or part of it: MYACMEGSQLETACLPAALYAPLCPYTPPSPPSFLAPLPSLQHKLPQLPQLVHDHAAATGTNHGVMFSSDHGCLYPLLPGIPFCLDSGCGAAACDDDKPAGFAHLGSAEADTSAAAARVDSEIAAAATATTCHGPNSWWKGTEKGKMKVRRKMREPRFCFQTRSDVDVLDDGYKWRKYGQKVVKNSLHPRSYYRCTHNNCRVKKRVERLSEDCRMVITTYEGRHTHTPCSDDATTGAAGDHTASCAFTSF

The list shows a part of the results.

The target of the test is OsWRKY34 (Oryza sativa, UniProt Q0JBA9 1-250). Nature of the test: protein-binding microarray (RPBM); PBS, 2% BSA, 51.3 ng/ul salmon testes DNA, 50 uM zinc acetate, 200 nM TF, 25 C, 1 h; high values mean tight binding. The note with it: protein: recombinant; tags: N-terminal polyhistidine and DsRed monomer fusion (pET32a); label: CyDye5-dUTP incorporated in the synthesized complementary strand; 3' TTTTT single-stranded linker to array surface; dsDNA, one strand shown. In outline:
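Transcription factors, each fused N-terminally to a polyhistidine tag and DsRed, were expressed in E. coli BL21-CodonPlus and purified on Ni–NTA. A custom Agilent array was made double-stranded by primer extension with Cy5-dUTP and blocked with 2% BSA. It was incubated with 200 nM protein in PBS, 2% BSA, salmon testes DNA and 50 µM zinc acetate at 25 °C for 1 h, then washed. The binding signal is per-feature fluorescence intensity (arbitrary units) read on an Axon 4000B scanner.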
Regarding “TGGTTTGGTTTGGTTCTTTGTTGTTGCTGCCGCTGCCGCGCGGAGTCACCTAGTGCAG”, the binding signal was 31400 fluorescence intensity (a.u.).

As for “TCTAAATCTTGTCGCATCACATTCAGATTCCATCTTTTTCCGGAGTCACCTAGTGCAG”, the binding signal was 9540 fluorescence intensity (a.u.).

For “TCTTTTCTTTGCCGCGTGCGTTCCTCTCCTCAGGTGGTGACGGAGTCACCTAGTGCAG”, the binding signal is 8980 fluorescence intensity (a.u.).

On to “GCTTCCGCCGCCGCGTCTTCTCGCCCTCGACTCCGCTCTCCGGAGTCACCTAGTGCAG”, for which the binding signal was 14700 fluorescence intensity (a.u.).

In the case of “ATTTTTGTCTTGAGTTAACACCGTCACGTTGCCTTCACGGCGGAGTCACCTAGTGCAG”, the binding signal is 9960 fluorescence intensity (a.u.).

On to “ACGCTTTCCTGTGCTCTTTCTCGGTTATTAATATTTTCTCCGGAGTCACCTAGTGCAG”, for which the binding signal is 10100 fluorescence intensity (a.u.).

In the case of “ACGCTCAATTATTCCGTGGCCACTAAGCTAAGCAACTCTGCGGAGTCACCTAGTGCAG”, the binding signal is 8630 fluorescence intensity (a.u.).

In the case of “AATTGGCCCTACCATATTCTTTTCTCAACTGCATAATCCTCGGAGTCACCTAGTGCAG”, the binding signal is 11500 fluorescence intensity (a.u.).

As for “GACAAACCCTGGTTTCCGTGTCCAACGTTTGACCGTCCGTCGGAGTCACCTAGTGCAG”, the binding signal was 9830 fluorescence intensity (a.u.).

For the sequence “TTTTGATCGTCCGTCTTATTTAAATTTTTTTTGAAAAAATCGGAGTCACCTAGTGCAG”, the binding signal is 8170 fluorescence intensity (a.u.).

In the case of “TTCCAATCACATTCTTAGTCAACACCATCCATGCTGTCGACGGAGTCACCTAGTGCAG”, the binding signal was 8570 fluorescence intensity (a.u.).

On to “TTCTAATTTCTATTGCTGTTTCTTAGACATGATATTTTTACGGAGTCACCTAGTGCAG”, for which the binding signal was 8710 fluorescence intensity (a.u.).

On to “TTTAAATTGTTACTATCTCGCAGTTCAGTAAAATTTTCATCGGAGTCACCTAGTGCAG”, for which the binding signal was 8420 fluorescence intensity (a.u.).

Consider “TAGTAGTTTGATCAATTTGCATCTCAGTGGTACCAAGTTCCGGAGTCACCTAGTGCAG”, for which the binding signal was 8340 fluorescence intensity (a.u.).

As to “GGTTTGCCGTCGTCGGCGTCGGCCGCTGCCTCGCGCGCGCCGGAGTCACCTAGTGCAG”, the binding signal is 9230 fluorescence intensity (a.u.).

Turning to “TTCGTTCCATCTCACCTCATCCTATTCTTGTAACTAAACACGGAGTCACCTAGTGCAG”, the binding signal was 9060 fluorescence intensity (a.u.).

In the case of “GGCCTACCTGTTGCAGATTCAAGTGTCGTTGCGCTTATAACGGAGTCACCTAGTGCAG”, the binding signal is 8860 fluorescence intensity (a.u.).

“CGCGCCGCCGCCGATCGCCTCTGCTCTCAACGCACCCAAGCGGAGTCACCTAGTGCAG”: the binding signal is 8120 fluorescence intensity (a.u.).

With “CCTCCGCCACACCCGCGCCACCCGCTCCCTTCGCCGGCTCCGGAGTCACCTAGTGCAG”, the binding signal is 10500 fluorescence intensity (a.u.).

As to “GAGCGTTATCTCGCGTGGCCAGCTCGGATTTGCGCATGCGCGGAGTCACCTAGTGCAG”, the binding signal was 8300 fluorescence intensity (a.u.).

Regarding “CCGCTTCTTCTTCCTTGCTGCTGTTCCTAAGGCACTTCTCCGGAGTCACCTAGTGCAG”, the binding signal is 8880 fluorescence intensity (a.u.).

As for “CACGCGCCATGCATGCACCACTGCCACCACTATCAACCACCGGAGTCACCTAGTGCAG”, the binding signal was 8180 fluorescence intensity (a.u.).

Turning to “TTCTTGTTTTCGTGGATCATCATCAACCTCAATAGAAACGCGGAGTCACCTAGTGCAG”, the binding signal is 8410 fluorescence intensity (a.u.).

For “CCGAGGCAATTTTTCCGACCTATTGTGTTGCTTTCCTCTCCGGAGTCACCTAGTGCAG”, the binding signal is 8360 fluorescence intensity (a.u.).

Turning to “CTCCTGCTCTAGTTCTTGTTTGATTAATTTGGTCAAATCTCGGAGTCACCTAGTGCAG”, the binding signal was 9140 fluorescence intensity (a.u.).

For “TTGTGGTGATGAGAAGACTATGTCATTTGTTATTCTTCTACGGAGTCACCTAGTGCAG”, the binding signal is 9510 fluorescence intensity (a.u.).

Regarding “CGCCGCTGTGCCCCTGTGCTCACCTCTCGTCGCGGTCGCCCGGAGTCACCTAGTGCAG”, the binding signal was 8350 fluorescence intensity (a.u.).

As to “GTAGTATTCTCGTTTTATTTTTCTTGTGGGTATAGCATTCCGGAGTCACCTAGTGCAG”, the binding signal was 13700 fluorescence intensity (a.u.).

Regarding “CTCCTCCACCTCCTCTGCTTCTTAATTCAATCCTATCTCACGGAGTCACCTAGTGCAG”, the binding signal is 8040 fluorescence intensity (a.u.).

Consider “CTTTTTATTACCGGTGTTTCGCTTTGGACCACCCTTCAACCGGAGTCACCTAGTGCAG”, for which the binding signal was 9170 fluorescence intensity (a.u.).

For the sequence “GTCGTCCGTCCTCGCTCCATTCGCTGTTGGGGCGCGCCAACGGAGTCACCTAGTGCAG”, the binding signal is 9470 fluorescence intensity (a.u.).

With “GTGGGTATGGGTAAGATTCGGTGAGGGCTGGGCTACCATGCGGAGTCACCTAGTGCAG”, the binding signal is 8200 fluorescence intensity (a.u.).

Consider “GCTCCTATCTCGATGGCTTCTGGCTTCTGCCCTACTTTTCCGGAGTCACCTAGTGCAG”, for which the binding signal is 11000 fluorescence intensity (a.u.).

As to “TCAAAGGTTGGTTTGATTTGTTGCTATTTGTTGGTTTGATCGGAGTCACCTAGTGCAG”, the binding signal was 8630 fluorescence intensity (a.u.).

As to “GGCATCCACGTCCGATTCATCCTCCCGCCAACTTGGAACCCGGAGTCACCTAGTGCAG”, the binding signal was 11100 fluorescence intensity (a.u.).

Consider “GAATCTTCTTTTACCCTCTTTTGCAAAGTCGATTTTTTCTCGGAGTCACCTAGTGCAG”, for which the binding signal was 8070 fluorescence intensity (a.u.).

“ATATAATTCCCGTCCGTTTCCGTATTGTTTTCACCCCTATCGGAGTCACCTAGTGCAG”: the binding signal was 8750 fluorescence intensity (a.u.).

As for “ACACAAGTGCTCAGTACTAGCCTTGAATTGTGCTCTTTCTCGGAGTCACCTAGTGCAG”, the binding signal was 9060 fluorescence intensity (a.u.).

Regarding “TTACCTCAAACTCGCGTATACCCTGGCACCAATGATTCTCCGGAGTCACCTAGTGCAG”, the binding signal is 9760 fluorescence intensity (a.u.).

In the case of “GATTAAAATAGACTTCACCTGTTGCAACGCACGGGCATTTCGGAGTCACCTAGTGCAG”, the binding signal was 8580 fluorescence intensity (a.u.).

Turning to “CCTCCGCCTCGCTTCTTCATCTCCTCTCCTTTAATTCGGCCGGAGTCACCTAGTGCAG”, the binding signal was 8580 fluorescence intensity (a.u.).

Regarding “GGCCCTTTATGTGGGTGTGCGTCGCGATCCTCTGCTTCTTCGGAGTCACCTAGTGCAG”, the binding signal is 8570 fluorescence intensity (a.u.).

Consider “TTTTCCTCTTCTTCCTCATGCCGCTCTCTTGCCGTTACTCCGGAGTCACCTAGTGCAG”, for which the binding signal was 10600 fluorescence intensity (a.u.).

Regarding “ATTTTTACTTATACCACCTCATGATTTTCTTCCTAAATTTCGGAGTCACCTAGTGCAG”, the binding signal was 8710 fluorescence intensity (a.u.).

In the case of “CCTCCTCGTCCCCGTTATCAGCCTCCTGGATATCACTCGTCGGAGTCACCTAGTGCAG”, the binding signal was 8660 fluorescence intensity (a.u.).

As for “TGTTGTTCTTCGTGTTGATTTCTTCCTCTGCGAATTGAATCGGAGTCACCTAGTGCAG”, the binding signal was 10100 fluorescence intensity (a.u.).

Turning to “TTGGAATAGGTTTTATCATTAGTTTATGTTTAATACTTCTCGGAGTCACCTAGTGCAG”, the binding signal is 8390 fluorescence intensity (a.u.).

In the case of “TCGTGGTTTTTATGTTGGTGTGTCCCTCAATCAATTTGGTCGGAGTCACCTAGTGCAG”, the binding signal was 8460 fluorescence intensity (a.u.).

Regarding “TTCTATATGTCTGTGCATAGCATTCTTGCAATTCAACTATCGGAGTCACCTAGTGCAG”, the binding signal is 8080 fluorescence intensity (a.u.).

With “ACAACAACAGACCGCAATTCCCGGGCCACCCCAGTCAACGCGGAGTCACCTAGTGCAG”, the binding signal was 9620 fluorescence intensity (a.u.).

Regarding “GGATGGGAAATTTCGGCCTCGCTTTCCTTGTTTGTTCGGCCGGAGTCACCTAGTGCAG”, the binding signal is 8480 fluorescence intensity (a.u.).

In the case of “GCCTCTCTCTAGACATCTCTCTCTTGTGTGTGGGTGGTTTCGGAGTCACCTAGTGCAG”, the binding signal is 10100 fluorescence intensity (a.u.).

“ATTGTACATTCCGTTTCCTGTAGTATGATTAGGCTTTCTTCGGAGTCACCTAGTGCAG”: the binding signal is 9320 fluorescence intensity (a.u.).

As for “TCCCCATATTCCCTTCGCCACCGTCACTCCACGAGCGCGACGGAGTCACCTAGTGCAG”, the binding signal was 9460 fluorescence intensity (a.u.).
